PubChem BioAssay AID504791 – Drosophila RNAi Screening Center, 2011
Aim: 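Factors in Argonaute-based small RNA production and activity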 (primary screen). System: Drosophila S2-derived reporter cells. Reagents: long dsRNA against Drosophila genes, about 150-250 ng dsRNA per well (siRNA assay); about 80-120 ng (miRNA assay). Timing: about 5 days (siRNA assay); about 4 days (miRNA assay). Treatment: copper sulfate induction of reporters: 25 µM (siRNA assay); 200 mM stated (miRNA assay), 1-2 days before reading. Detection: 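Per-well ratio of Renilla over firefly light, expressed relative to that plate's average ratio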. Hit rule: 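a well was a first-pass pick when its plate-scaled ratio rose above 1.5 (siRNA assay) or 1.6 (miRNA assay), or dropped below 0.6; a gene counted only if two separate dsRNAs agreed on retest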.
In all, the deposit lists about 23,000 reagents; shown is an unselected part of those with a known target gene and a result. In the full data, 199 (0.86%) are marked active. 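Plate-scaled ratios behind the calls are not deposited; printed light signals are raw; many rows marked increased or decreased are still called inactive.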 Entries without a mark were called inactive. Names joined by + are all predicted targets of the reagent. Not stated in the record: the direction of the score.

| target | dsRNA | stable siRNA reporter change | miRNA reporter change | stable assay Renilla, run 1 (luminescence) | stable assay firefly, run 1 (luminescence) |
| --- | --- | --- | --- | --- | --- |
| Dpm1 | DRSC02018 | – | – | 7376 | 3.97e5 |
| p23 | DRSC15158 | – | – | 9839 | 5.49e5 |
| hig | DRSC07628 | – | reporter ratio raised past the hit cutoff | 4810 | 3.42e5 |
| hig | DRSC22827 | – | – | 4111 | 3.90e5 |
| hig | DRSC22899 | reporter ratio raised past the hit cutoff | – | 5202 | 1.84e5 |
| CG30083 | DRSC05572 | – | – | 7367 | 4.85e5 |
| CG31922 | DRSC21703 | – | – | 9298 | 5.00e5 |
| DIP2 | DRSC08582 | – | – | 10029 | 3.80e5 |
| SelR | DRSC16071 | – | – | 6930 | 3.86e5 |
| CG1463 | DRSC19603 | – | – | 7131 | 2.81e5 |
| tmod | DRSC13993 | – | – | 8239 | 4.27e5 |
| tmod | DRSC14314 | – | – | 6570 | 3.93e5 |
| tmod | DRSC15076 | – | – | 6250 | 4.47e5 |
| tmod | DRSC17062 | – | – | 8595 | 5.84e5 |
| CG9547 | DRSC03260 | – | – | 11536 | 1.40e6 |
| aust | DRSC02558 | – | – | 8654 | 4.13e5 |
| CG10089 | DRSC09694 | – | – | 6288 | 3.95e5 |
| CG10089 | DRSC09695 | – | – | 7571 | 4.76e5 |
| CARPB | DRSC18437 | – | – | 2939 | 3.84e5 |
| CARPB | DRSC18438 | – | – | 5895 | 4.86e5 |
| Dbp80 | DRSC22034 | – | – | 9619 | 4.72e5 |
| CG12869 | DRSC06208 | – | – | 6216 | 2.58e5 |
| LanB1 | DRSC03360 | – | – | 13984 | 4.89e5 |
| CG6204 | DRSC15991 | – | – | 9160 | 4.09e5 |
| enok | DRSC04096 | – | – | 13799 | 1.69e6 |
| CG44325 | DRSC18423 | – | – | 5799 | 4.02e5 |
| CG6310 | DRSC10619 | – | – | 5928 | 3.36e5 |
| rad50 | DRSC04523 | – | – | 96288 | 4.04e5 |
| CG7006 | DRSC16169 | – | – | 8622 | 3.17e5 |
| D | DRSC11132 | – | – | 8104 | 3.59e5 |
| CG3021 | DRSC18165 | – | – | 6639 | 3.79e5 |
| CG3021 | DRSC18652 | – | – | 7003 | 4.54e5 |
| vih | DRSC09778 | – | – | 8214 | 5.07e5 |
| Arts + Apl | DRSC10349 | – | – | 9037 | 5.33e5 |
| Oga | DRSC15901 | – | – | 8913 | 3.43e5 |
| CG2246 | DRSC15433 | – | – | 4811 | 3.35e5 |
| Rcd7 | DRSC10100 | – | – | 7166 | 3.51e5 |
| CG9961 | DRSC00738 | – | – | 7395 | 3.84e5 |
| CG9961 | DRSC23343 | – | – | 4144 | 3.34e5 |
| CG17224 | DRSC00489 | – | – | 8689 | 5.35e5 |
| ppk31 | DRSC13811 | – | – | 4400 | 2.61e5 |
| cav | DRSC15995 | – | – | 9522 | 3.43e5 |
| Lsp2 | DRSC09841 | – | – | 7030 | 3.40e5 |
| Lsp2 | DRSC11216 | – | – | 5826 | 3.31e5 |
| ReepB | DRSC07150 | – | – | 8392 | 4.56e5 |
| tadr | DRSC03177 | – | – | 29017 | 1.18e6 |
| CG8008 | DRSC07053 | – | – | 7986 | 5.62e5 |
| CG31678 | DRSC02618 | – | – | 10068 | 7.83e5 |
| CG31678 | DRSC02619 | – | – | 6430 | 4.19e5 |
| Ldh | DRSC11198 | reporter ratio raised past the hit cutoff | – | 5870 | 2.47e5 |
| Alp10 | DRSC09749 | – | – | 5810 | 2.99e5 |
| CR42548 | DRSC09514 | – | – | 7170 | 5.03e5 |
| Acp76A | DRSC09665 | – | – | 6267 | 4.03e5 |
| CG12590 | DRSC12216 | – | – | 6880 | 3.97e5 |
| Irbp18 | DRSC10612 | – | reporter ratio lowered past the hit cutoff (active) | 4980 | 3.17e5 |
| Gr64a | DRSC21713 | – | – | 9580 | 5.32e5 |
| Ir94e | DRSC15229 | – | – | 4536 | 3.97e5 |
| CG14331 | DRSC14810 | – | – | 7100 | 4.03e5 |
| CG1640 | DRSC19750 | – | – | 6463 | 3.29e5 |
| CG4983 | DRSC02799 | – | – | 6575 | 3.50e5 |
| CG5376 | DRSC15782 | – | – | 7564 | 3.97e5 |
| CG12398 | DRSC19454 | – | – | 5738 | 4.48e5 |
| whd | DRSC07351 | – | – | 7866 | 3.81e5 |
| CG7236 | DRSC03037 | – | – | 6791 | 3.73e5 |
| CG15130 | DRSC02430 | – | – | 8284 | 4.86e5 |
| Arc2 | DRSC06436 | – | – | 6999 | 4.70e5 |
| CG13082 | DRSC02186 | – | – | 6471 | 3.58e5 |
| neur | DRSC17013 | – | – | 9218 | 4.43e5 |
| CG13442 | DRSC06402 | – | – | 6662 | 5.37e5 |
| CG4866 | DRSC06899 | – | – | 6556 | 3.87e5 |
| Cp16 | DRSC11119 | – | – | 6320 | 3.68e5 |
| CG2841 | DRSC17699 | – | – | 6815 | 3.29e5 |
| CG2841 | DRSC18824 | – | – | 6079 | 3.57e5 |
| CG2841 | DRSC22106 | – | – | 8554 | 5.78e5 |
| CG9030 | DRSC20139 | – | – | 5079 | 3.70e5 |
| Ass + CG31286 | DRSC12493 | – | – | 6866 | 3.75e5 |
| Dyrk3 | DRSC21055 | – | – | 4563 | 3.92e5 |
| GstE11 | DRSC06926 | – | – | 8831 | 2.97e5 |
| Pgant2 | DRSC00587 | – | – | 8379 | 5.50e5 |
| regucalcin | DRSC18908 | – | – | 5842 | 3.20e5 |
| regucalcin | DRSC20366 | – | – | 6483 | 4.90e5 |
| GstD6 | DRSC16687 | – | – | 6690 | 4.07e5 |
| Pp1-Y1 | DRSC20896 | – | – | 3943 | 4.35e5 |

Looked up above:
Under “stable assay firefly, run 1 (luminescence)”, CG1640 [DRSC19750] is entered as 3.29e5
Under “stable assay firefly, run 1 (luminescence)”, Cp16 [DRSC11119] is entered as 3.68e5
Under “stable assay firefly, run 1 (luminescence)”, whd [DRSC07351] reads 3.81e5
Result of CG7006 [DRSC16169] in “stable assay Renilla, run 1 (luminescence)”: 8622
hig [DRSC07628], stable assay firefly, run 1 (luminescence) = 3.42e5
Under “stable assay Renilla, run 1 (luminescence)”, aust [DRSC02558] shows 8654
